Test results taken from the supplement of paper PMC6331611.
± gives the standard deviation of the averaged measurements. In all, about 1,600 compounds were measured (“normalized growth (OD600, IQM-normalized) in LPM”: median about 1, lowest 2% from about 0.014 on). The list shows a part of the results.

The compounds below were run on Salmonella enterica serovar Typhimurium SL1344 (assay: normalized growth (OD600, IQM-normalized) in LPM (fraction of plate interquartile mean); higher = more bacterial growth (less inhibition)). Details: LPM pH 5.8; 10 µM; 16 h.

Point of comparison: `CC[C@@]1(O)C(=O)OCc2c1cc1n(c2=O)Cc2cc3c(CN(C)C)c(O)ccc3nc2-1`, normalized growth 1 ± 0.022. Against it:
- CN(C)c1cc(NC(=O)CNC(C)(C)C)c(O)c2c1C[C@H]1C[C@H]3[C@H](N(C)C)C(O)=C(C(N)=O)C(=O)[C@@]3(O)C(O)=C1C2=O — within error, 0.962 ± 0.053
- CC1(C)O[C@@H]2[C@@H](CO[C@@]3(COS(N)(=O)=O)OC(C)(C)O[C@@H]23)O1 — lower, 0.931 ± 0.034
- COc1cc(NS(=O)(=O)c2ccc(N)cc2)nc(OC)n1 — higher, 1.4 ± 0.14
- CC[N+](CC)(CC(=O)Nc1c(C)cccc1C)Cc1ccccc1 — within error, 0.978 ± 0.011
- O=C1N=C(O)NC1(c1ccccc1)c1ccccc1 — within error, 0.991 ± 0.094
- CC(=O)OCC(=O)[C@@]1(O)[C@H](OC(C)=O)C[C@H]2[C@@H]3CCC4=CC(=O)C=C[C@]4(C)[C@@]3(F)[C@@H](O)C[C@@]21C — lower, 0.892 ± 0.038
- CC(C)Cn1cnc2c(N)nc3ccccc3c21 — within error, 0.975 ± 0.0099
- NC(=O)N1c2ccccc2CC(=O)c2ccccc21 — within error, 0.978 ± 0.15
- Cc1nnc(SCC2=C(C(=O)O)N3C(=O)[C@@H](NC(=O)Cn4cnnn4)[C@H]3SC2)s1 — lower, 0.755 ± 0.017
- CCCC(=O)O[C@]1(C(=O)CO)CC[C@H]2[C@@H]3CCC4=CC(=O)CC[C@]4(C)[C@H]3[C@@H](O)C[C@@]21C — within error, 0.948 ± 0.033
- CC1(C)S[C@@H]2[C@H](NC(=O)COc3ccccc3)C(=O)N2[C@H]1C(=O)O — within error, 0.961 ± 0.025
- COc1ccc2c3c1O[C@H]1C[C@@H](O)C=C[C@@]31CCN(C)C2 — lower, 0.9358 ± 0.0085
- CC(C)NC(=N)NC(=N)Nc1ccc(Cl)cc1 — lower, 0.878 ± 0.042
- S=c1[nH]cnc2nc[nH]c12 — lower, 0.518 ± 0.018
- C[C@H]1O[C@@H](O[C@H]2[C@@H](O)C[C@H](O[C@H]3[C@@H](O)C[C@H](O[C@H]4CC[C@@]5(C)[C@H](CC[C@@H]6[C@@H]5CC[C@]5(C)[C@@H](C7=CC(=O)OC7)CC[C@]65O)C4)O[C@@H]3C)O[C@@H]2C)C[C@H](O)[C@@H]1O — lower, 0.932 ± 0.017
- CC(=O)CC(c1ccc([N+](=O)[O-])cc1)c1c(O)c2ccccc2oc1=O (stereo not drawn) — within error, 1.01 ± 0.021
- CCCCCCCCNC(C)C(O)c1ccc(SC(C)C)cc1 (stereo not drawn) — higher, 1.055 ± 0.0087
- CC(=O)O[C@]1(C(C)=O)CC[C@H]2[C@@H]3C=C(C)C4=CC(=O)CC[C@]4(C)[C@H]3CC[C@@]21C — higher, 1.84 ± 0.093
- NC[C@H]1O[C@H](O[C@H]2[C@H](O)[C@@H](O[C@H]3O[C@H](CO)[C@@H](O)[C@H](N)[C@H]3O)[C@H](N)C[C@@H]2N)[C@H](N)[C@@H](O)[C@@H]1O — higher, 1.04 ± 0.016
- Cc1c(C)c2c(c(C)c1O)CCC(C)(CCCC(C)CCCC(C)CCCC(C)C)O2 (stereo not drawn) [alpha-TOCHOPHEROL] — higher, 1.15 ± 0.11
- Nc1nc(=O)[nH]cc1F — lower, 0.742 ± 0.12
- Nc1nnc(-c2cccc(Cl)c2Cl)c(N)n1 — the same, 1 ± 0.028
- C#CC1(O)CC[C@H]2[C@@H]3CCC4=CC(=O)CC[C@@H]4[C@H]3CC[C@@]21CC (stereo partly drawn) — lower, 0.941 ± 0.024
- CC1=C(C(=O)O)N2C(=O)[C@@H](NC(=O)[C@H](N)c3ccccc3)[C@H]2SC1 — within error, 0.912 ± 0.069
- CC[C@H](C)C(=O)O[C@H]1C[C@H](O)C=C2C=C[C@H](C)[C@H](CC[C@@H](O)C[C@@H](O)CC(=O)O)[C@H]21 — within error, 0.961 ± 0.048
- CC(C)(C)NCC(O)COc1cccc2c1CC(O)C(O)C2 (stereo not drawn) — lower, 0.945 ± 0.026
- O=C(c1cccnc1)N1CCOCC1 — within error, 0.959 ± 0.049
- OCC(S)CS (stereo not drawn) — lower, 0.695 ± 0.06
- COc1ccc2cc3[n+](cc2c1OC)CCc1cc2c(cc1-3)OCO2 — within error, 1.04 ± 0.024
- COc1ccc2c(c1)c(CC(=O)OCC(=O)O)c(C)n2C(=O)c1ccc(Cl)cc1 — higher, 1.109 ± 0.01
- Cc1c2oc3c(C)ccc(C(=O)N[C@@H]4C(=O)N[C@H](C(C)C)C(=O)N5CCC[C@H]5C(=O)N(C)CC(=O)N(C)[C@@H](C(C)C)C(=O)O[C@@H]4C)c3nc-2c(C(=O)N[C@@H]2C(=O)N[C@H](C(C)C)C(=O)N3CCC[C@H]3C(=O)N(C)CC(=O)N(C)[C@@H](C(C)C)C(=O)O[C@@H]2C)c(N)c1=O — higher, 1.13 ± 0.033
- CC(=O)NC[C@H]1CN(c2ccc(N3CCOCC3)c(F)c2)C(=O)O1 — within error, 0.971 ± 0.044
- O=C1C(O)=C(O)C(=O)C(O)=C1O — within error, 1.02 ± 0.014
- Cc1nccn1CC1CCc2c(c3ccccc3n2C)C1=O (stereo not drawn) — within error, 0.998 ± 0.039
- NC(=O)c1cc[n+](CC2=C(C(=O)[O-])N3C(=O)[C@@H](NC(=O)Cc4cccs4)[C@H]3SC2)cc1 — within error, 0.991 ± 0.077
- N=C(N)N1CCc2ccccc2C1 — within error, 0.919 ± 0.095
- CC(=O)/N=c1/sc(S(N)(=O)=O)nn1C — lower, 0.898 ± 0.021
- CC1=CC(=O)c2ccccc2C1=O — within error, 0.984 ± 0.017
- C#C[C@]1(OC(C)=O)CC[C@H]2[C@@H]3CCC4=CC(=O)CC[C@@H]4[C@H]3CC[C@@]21C — higher, 1.14 ± 0.03
- CCCCOC(=O)c1ccc(O)cc1 — within error, 1.04 ± 0.02
- COCCCOc1cc(C[C@@H](C[C@H](N)[C@@H](O)C[C@H](C(=O)NCC(C)(C)C(N)=O)C(C)C)C(C)C)ccc1OC — within error, 0.97 ± 0.033
- CCCc1nc2c(C)cc(-c3nc4ccccc4n3C)cc2n1Cc1ccc(-c2ccccc2C(=O)O)cc1 — the same, 1 ± 0.018
- CCCCC1C(=O)N(c2ccccc2)N(c2ccccc2)C1=O — within error, 0.985 ± 0.018
- O=C(CCCCC(=O)Nc1c(I)cc(I)c(C(=O)O)c1I)Nc1c(I)cc(I)c(C(=O)O)c1I — within error, 0.974 ± 0.021
- Cc1ccc(C(=O)C(C)CN2CCCCC2)cc1 (stereo not drawn) — within error, 0.968 ± 0.03
- CNCC[C@@H](Oc1ccccc1C)c1ccccc1 — lower, 0.9663 ± 0.0022
- COCCCOc1ccnc(C[S+]([O-])c2nc3ccccc3[nH]2)c1C (stereo not drawn) — the same, 1 ± 0.02
